# Experimental data taken from the supplement of paper PMC3334620.
# Over roughly 33,000 sequences, “E-score (-0.5 to 0.5)” has its median near -8e-05; the highest 2% begin near 0.23. Some of the results follow.
# Target: T1, Nrg2 (UniProt P38082)
# T1 sequence: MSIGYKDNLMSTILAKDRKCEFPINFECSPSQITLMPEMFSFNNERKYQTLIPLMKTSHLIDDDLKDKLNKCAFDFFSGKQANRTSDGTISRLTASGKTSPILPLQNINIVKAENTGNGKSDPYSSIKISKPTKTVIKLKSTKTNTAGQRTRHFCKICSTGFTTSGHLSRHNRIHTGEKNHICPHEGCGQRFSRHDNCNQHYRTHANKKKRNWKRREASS
# Test: PBM E-score (8-mer binding enrichment) (E-score (-0.5 to 0.5)); higher = stronger / more preferred TF binding
# Details: protein concentration: 100 nM; construct: GST-full length
# How it was run: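 Full-length yeast transcription factors or their DNA-binding domains, GST-tagged and expressed with PURExpress, were applied at about 100-200 nM to universal all-10-mer Agilent arrays. These arrays had been made double-stranded by primer extension on fresh or once-stripped slides. Detection used fluorescent anti-GST, normalisation used masliner, and E-scores for ungapped eight-base words pooled with reverse complements came from the Universal PBM Analysis Suite.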
row,Sequence,PBM E-score
1,CTCGTAAA,-0.0593
2,CATGTTTC,0.0878
3,ACGAAAGA,0.0363
4,CTCACTTA,-0.0533
5,ATGACGCG,0.187
6,CACGTGGA,0.0556
7,AACTGTCC,-0.0683
8,CGCCCTAG,0.084
9,TCGCTTAA,0.0825
10,AAAGTGTA,0.0766
11,TTGAACAA,-0.0525
12,AGACCGTA,-0.242
13,CAAGGATC,0.0487
14,CCCGGCAG,-0.0782
15,GACCTCGA,0.126
16,ATCCGTGA,-0.0049
17,ATCTAAGG,0.128
18,ACCTAACG,-0.0736
19,ATGCGTGG,-0.189
20,ACTAGATC,0.0954
21,GAGCCAGC,-0.198
22,GTGTTCAA,-0.0711
23,CGAATAAC,0.111
24,ACCGAGGT,-0.182
25,CCCCCGAC,-0.341

row,Sequence,PBM E-score
1,CCTCACCG,-0.173
2,CGAAGTTA,0.0669
3,CTCTCTTA,-0.0805
4,AAAGCGGC,-0.0596
5,AGTGCTCA,-0.18
6,AGACGTGG,-0.0559
7,ACTTTAAA,0.0738
8,CGATTATA,0.138
9,AGCGGTGG,-0.061
10,CAAGCTCA,-0.067
11,AAGTCCTC,-0.0153
12,AATCCTGT,0.0715
13,GAATTCGA,0.0262
14,CTTATGAC,0.0239
15,GCTGAGAA,0.0902
16,AGCATGTA,-0.024
17,CGTTATTC,-0.0979
18,CCATGCAC,-0.0815
19,GGGGACCA,0.0565
20,AGTGTTCC,-0.03
21,CACCGAGC,-0.0218
22,GGTATACC,0.0403
23,ACTTTTCC,0.0561
24,TGTTGCAA,0.268
25,ATAGAGAG,-0.191

row,Sequence,PBM E-score
1,TATGAGCA,-0.127
2,CCCTTTAC,0.102
3,AAAAAGTA,0.0499
4,AATCTGCG,0.166
5,AACAGTAA,0.0109
6,ACTAGAGT,-0.204
7,ACAGCTCT,-0.254
8,CTCTAGAG,0.0354
9,ACTGTTAA,0.0564
10,AATGGATA,0.00185
11,GATGACAC,0.0199
12,CAACGATG,-0.049
13,AACTTTCG,0.0282
14,ACGCCCGC,-0.0617
15,GTTCAGCA,-0.00891
16,GTGGGCCA,-0.0756
17,CATCGTCA,0.0132
18,AGGAAAAG,0.13
19,GTCTGTCA,0.153
20,CCCTCTGA,-0.00534
21,ATCGAGGC,-0.0417
22,AAAGGAGT,-0.0141
23,ACCTGGTG,-0.231
24,GATGTACA,0.0667
25,GACTGAAC,-0.232

# Reformatted tab-delimited: entries from further up
row	Sequence	PBM E-score
14	CTTATGAC	0.0239
15	GCTGAGAA	0.0902
16	AGCATGTA	-0.024
17	CGTTATTC	-0.0979
18	CCATGCAC	-0.0815
19	GGGGACCA	0.0565
20	AGTGTTCC	-0.03
21	CACCGAGC	-0.0218
22	GGTATACC	0.0403
23	ACTTTTCC	0.0561
24	TGTTGCAA	0.268
25	ATAGAGAG	-0.191
1	TATGAGCA	-0.127
2	CCCTTTAC	0.102
3	AAAAAGTA	0.0499
4	AATCTGCG	0.166
5	AACAGTAA	0.0109
6	ACTAGAGT	-0.204
7	ACAGCTCT	-0.254
8	CTCTAGAG	0.0354
9	ACTGTTAA	0.0564
10	AATGGATA	0.00185
11	GATGACAC	0.0199
12	CAACGATG	-0.049
13	AACTTTCG	0.0282
14	ACGCCCGC	-0.0617
15	GTTCAGCA	-0.00891
16	GTGGGCCA	-0.0756
17	CATCGTCA	0.0132
18	AGGAAAAG	0.13
19	GTCTGTCA	0.153
20	CCCTCTGA	-0.00534
21	ATCGAGGC	-0.0417
22	AAAGGAGT	-0.0141
23	ACCTGGTG	-0.231
24	GATGTACA	0.0667
25	GACTGAAC	-0.232

# Next part:

row,Sequence,PBM E-score
1,CGTCAGGA,-0.112
2,GGTCCAAC,0.0117
3,AATCGCGG,0.162
4,CACCTGCC,0.0283
5,ACAGAATC,0.00693
6,AGATGTAT,0.0916
7,TATATTAA,0.234
8,ACTGCGAC,0.0437
9,AAACGAGG,-0.0504
10,ACCGCTAG,-0.1
11,CTAGGTAA,-0.139
12,AACTTGTC,0.00668
13,CAGTAGCG,-0.0548
14,TAACTCGA,0.294
15,ACACGTGA,0.0954
16,ACGCATTG,0.00161
17,CTGCAAAA,0.0323
18,CGCCAGAG,0.037
19,ATTAGAAT,0.161
20,AACGCGAT,0.0868
21,ATTACAGC,-0.18
22,CCGAGATC,0.068
23,CAGAACCA,-0.061
24,AAAAGATG,-0.0369
25,GATCGTAA,-0.0753

row,Sequence,PBM E-score
1,CAAGGTTC,-0.224
2,CCCAACTC,0.256
3,GACAAGAA,0.149
4,AAAACCTT,-0.145
5,CATGGGCC,-0.055
6,GACGTCGC,-0.0786
7,TACCAGTA,0.00025
8,CTATCCTC,-0.108
9,ATATCGGC,0.0719
10,GGAAGTAC,0.0716
11,GTGCTGAA,-0.0741
12,ACCGACGA,-0.149
13,GTCCCGAC,0.0418
14,CATTAGGA,-0.0947
15,TATTAAAA,0.262
16,GAAGACTC,-0.26
17,GGTCGTAC,-0.0518
18,GGGTGGAA,-0.0943
19,ACCGCGGT,0.0747
20,AGGTAGAT,-0.104
21,ATATATCC,0.221
22,CCCTTCCG,-0.0483
23,CATTTACC,-0.0104
24,AGCATGAG,-0.0535
25,CGTTTCAG,0.134

row,Sequence,PBM E-score
1,CACAGTCA,-0.00342
2,ACGTACCC,-0.127
3,AATATGTG,0.182
4,CCTTATAA,0.122
5,CGTCAAAG,-0.149
6,CGAAAACG,0.0034
7,CATTCATC,0.0561
8,GTGTGGGA,0.00314
9,TCAGCGGA,0.0444
10,CGGATGGA,0.061
11,GCCTTATA,0.0159
12,AATGATCT,0.162
13,AGCATACC,-0.0188
14,CAGGCATC,-0.119
15,CCAAAAGC,-0.0969
16,AGGATTAT,-0.0837
17,ATCGAACC,0.186
18,ACAACTCG,0.115
19,ACAGTACC,-0.11
20,GAAGTTCA,0.127
21,AACCGCGC,0.221
22,ACTTTCGC,-0.0735
23,AACCAGGT,-0.244
24,AGGGCCGC,-0.0367
25,GAAACAAA,0.207

row,Sequence,PBM E-score
1,CTAGCTAG,0.111
2,CGATGCGA,0.114
3,AGGTGGAG,-0.218
4,AGACGACC,0.0156
5,AATTCTCA,0.0717
6,AGCGACCT,-0.0964
7,GCTAGTCC,-0.199
8,AAAGAAAG,0.17
9,AATAGCAT,0.159
10,AGCTCTGA,-0.199
11,CCGGTTGA,-0.0151
12,ATTTCTCG,0.285
13,TGCAAAAA,0.182
14,GGGGATTA,0.164
15,ATCGTGGC,-0.181
16,AGGAGCGC,-0.0981
17,GGCTGATA,0.0866
18,GAATTACC,-0.0941
19,GGCTGCCC,-0.183
20,GTACGGAC,0.105
21,ACGAGCGG,-0.066
22,GCGCCAGC,-0.229
